Measurements: the supplement of paper PMC10849652
The list shows a part of the results.

Amino acid sequences for entries named in this document (tags omitted). A change or cut given only in a name is not applied to a line headed by its entry.
UniProt Q9H9A5, whole entry, looked up: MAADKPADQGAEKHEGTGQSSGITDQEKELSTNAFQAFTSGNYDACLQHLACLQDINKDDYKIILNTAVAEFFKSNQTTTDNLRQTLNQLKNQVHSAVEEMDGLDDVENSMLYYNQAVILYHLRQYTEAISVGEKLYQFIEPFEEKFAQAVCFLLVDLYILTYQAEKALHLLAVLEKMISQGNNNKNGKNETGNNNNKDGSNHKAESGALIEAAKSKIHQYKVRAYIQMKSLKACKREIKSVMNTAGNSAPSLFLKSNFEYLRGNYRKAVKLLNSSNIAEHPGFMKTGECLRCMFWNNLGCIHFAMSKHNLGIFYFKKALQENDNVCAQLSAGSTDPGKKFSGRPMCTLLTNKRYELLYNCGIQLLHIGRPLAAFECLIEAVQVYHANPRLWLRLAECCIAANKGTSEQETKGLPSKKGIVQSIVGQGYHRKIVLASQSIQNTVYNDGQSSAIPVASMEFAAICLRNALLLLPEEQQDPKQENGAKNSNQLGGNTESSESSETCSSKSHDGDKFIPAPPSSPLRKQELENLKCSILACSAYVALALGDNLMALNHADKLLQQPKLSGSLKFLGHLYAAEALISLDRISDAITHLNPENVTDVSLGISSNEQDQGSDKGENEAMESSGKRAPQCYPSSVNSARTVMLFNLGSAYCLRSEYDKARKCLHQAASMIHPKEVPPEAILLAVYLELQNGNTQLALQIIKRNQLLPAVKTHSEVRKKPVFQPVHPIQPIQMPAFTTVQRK
UniProt P53621: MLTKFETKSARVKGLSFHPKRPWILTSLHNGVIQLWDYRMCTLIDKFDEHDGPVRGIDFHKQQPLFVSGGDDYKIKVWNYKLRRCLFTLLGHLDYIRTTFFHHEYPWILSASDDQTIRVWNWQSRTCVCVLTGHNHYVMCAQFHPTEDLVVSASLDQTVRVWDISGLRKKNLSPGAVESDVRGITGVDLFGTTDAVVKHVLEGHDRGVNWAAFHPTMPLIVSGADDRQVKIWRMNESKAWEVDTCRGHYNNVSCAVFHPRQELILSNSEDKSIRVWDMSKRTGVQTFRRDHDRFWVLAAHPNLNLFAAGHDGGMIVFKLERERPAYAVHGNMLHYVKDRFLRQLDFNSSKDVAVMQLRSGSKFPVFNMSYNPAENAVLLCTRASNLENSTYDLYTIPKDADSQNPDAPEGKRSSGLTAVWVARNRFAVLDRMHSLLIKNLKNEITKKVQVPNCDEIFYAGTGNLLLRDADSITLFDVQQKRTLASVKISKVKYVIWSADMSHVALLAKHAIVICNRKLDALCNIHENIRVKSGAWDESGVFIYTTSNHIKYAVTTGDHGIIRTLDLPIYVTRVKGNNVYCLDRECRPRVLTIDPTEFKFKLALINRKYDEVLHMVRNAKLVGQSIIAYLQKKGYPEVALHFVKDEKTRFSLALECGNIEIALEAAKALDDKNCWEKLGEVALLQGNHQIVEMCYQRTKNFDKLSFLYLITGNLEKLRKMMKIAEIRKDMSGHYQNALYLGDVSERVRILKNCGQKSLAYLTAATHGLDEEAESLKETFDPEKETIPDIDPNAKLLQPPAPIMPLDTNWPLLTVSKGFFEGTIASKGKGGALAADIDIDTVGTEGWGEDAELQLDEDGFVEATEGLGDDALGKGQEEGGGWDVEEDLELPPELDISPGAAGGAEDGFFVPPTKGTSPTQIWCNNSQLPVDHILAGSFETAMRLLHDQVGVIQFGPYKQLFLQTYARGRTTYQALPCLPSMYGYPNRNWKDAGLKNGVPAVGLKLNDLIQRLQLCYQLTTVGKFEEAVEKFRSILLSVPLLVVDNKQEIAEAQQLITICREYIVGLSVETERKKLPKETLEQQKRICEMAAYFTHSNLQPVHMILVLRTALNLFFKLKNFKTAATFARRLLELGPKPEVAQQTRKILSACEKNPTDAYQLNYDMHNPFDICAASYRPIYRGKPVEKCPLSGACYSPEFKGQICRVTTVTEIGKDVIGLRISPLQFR
UniProt Q9UNS2: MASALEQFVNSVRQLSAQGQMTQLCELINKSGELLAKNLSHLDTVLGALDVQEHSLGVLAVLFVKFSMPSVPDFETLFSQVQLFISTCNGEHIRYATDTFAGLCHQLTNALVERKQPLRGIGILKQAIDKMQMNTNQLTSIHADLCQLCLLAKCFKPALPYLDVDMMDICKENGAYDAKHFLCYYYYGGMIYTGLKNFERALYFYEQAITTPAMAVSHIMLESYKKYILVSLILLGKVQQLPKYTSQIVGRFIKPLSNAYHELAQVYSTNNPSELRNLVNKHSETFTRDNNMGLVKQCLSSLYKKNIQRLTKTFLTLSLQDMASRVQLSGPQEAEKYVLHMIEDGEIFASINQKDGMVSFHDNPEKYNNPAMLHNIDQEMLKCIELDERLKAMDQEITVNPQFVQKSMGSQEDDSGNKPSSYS
UniProt Q9ULM6, whole entry, looked up: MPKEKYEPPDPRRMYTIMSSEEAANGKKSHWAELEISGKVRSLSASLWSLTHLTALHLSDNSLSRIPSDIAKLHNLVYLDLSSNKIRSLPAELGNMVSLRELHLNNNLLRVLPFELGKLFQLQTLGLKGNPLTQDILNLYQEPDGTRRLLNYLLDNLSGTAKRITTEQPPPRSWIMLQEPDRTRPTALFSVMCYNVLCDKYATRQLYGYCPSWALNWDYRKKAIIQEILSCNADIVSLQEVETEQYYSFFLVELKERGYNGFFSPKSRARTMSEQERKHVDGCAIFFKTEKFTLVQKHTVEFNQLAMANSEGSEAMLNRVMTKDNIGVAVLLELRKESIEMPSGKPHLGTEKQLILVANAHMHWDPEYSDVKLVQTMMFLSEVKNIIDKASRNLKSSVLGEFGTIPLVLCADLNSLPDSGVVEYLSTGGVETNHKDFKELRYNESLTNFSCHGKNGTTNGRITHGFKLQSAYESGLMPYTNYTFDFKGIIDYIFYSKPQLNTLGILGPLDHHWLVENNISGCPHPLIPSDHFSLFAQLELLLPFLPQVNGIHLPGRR
UniProt Q9NQ92: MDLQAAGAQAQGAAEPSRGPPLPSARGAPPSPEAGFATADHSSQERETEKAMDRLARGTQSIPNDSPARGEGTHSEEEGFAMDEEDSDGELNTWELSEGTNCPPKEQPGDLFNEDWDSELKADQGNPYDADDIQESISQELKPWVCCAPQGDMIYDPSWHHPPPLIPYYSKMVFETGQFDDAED
UniProt Q14019: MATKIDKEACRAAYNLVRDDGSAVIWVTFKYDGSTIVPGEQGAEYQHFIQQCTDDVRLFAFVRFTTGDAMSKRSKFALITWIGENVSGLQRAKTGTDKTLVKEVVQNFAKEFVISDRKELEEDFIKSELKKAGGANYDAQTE
UniProt Q49B96: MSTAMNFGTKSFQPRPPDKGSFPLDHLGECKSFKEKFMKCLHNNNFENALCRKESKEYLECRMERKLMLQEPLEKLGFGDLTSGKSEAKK
UniProt P61923: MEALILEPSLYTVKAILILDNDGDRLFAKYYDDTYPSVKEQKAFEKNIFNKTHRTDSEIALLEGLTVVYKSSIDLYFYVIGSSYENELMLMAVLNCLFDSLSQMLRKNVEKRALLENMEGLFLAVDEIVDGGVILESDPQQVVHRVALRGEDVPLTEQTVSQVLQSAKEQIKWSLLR
UniProt Q6PJW8: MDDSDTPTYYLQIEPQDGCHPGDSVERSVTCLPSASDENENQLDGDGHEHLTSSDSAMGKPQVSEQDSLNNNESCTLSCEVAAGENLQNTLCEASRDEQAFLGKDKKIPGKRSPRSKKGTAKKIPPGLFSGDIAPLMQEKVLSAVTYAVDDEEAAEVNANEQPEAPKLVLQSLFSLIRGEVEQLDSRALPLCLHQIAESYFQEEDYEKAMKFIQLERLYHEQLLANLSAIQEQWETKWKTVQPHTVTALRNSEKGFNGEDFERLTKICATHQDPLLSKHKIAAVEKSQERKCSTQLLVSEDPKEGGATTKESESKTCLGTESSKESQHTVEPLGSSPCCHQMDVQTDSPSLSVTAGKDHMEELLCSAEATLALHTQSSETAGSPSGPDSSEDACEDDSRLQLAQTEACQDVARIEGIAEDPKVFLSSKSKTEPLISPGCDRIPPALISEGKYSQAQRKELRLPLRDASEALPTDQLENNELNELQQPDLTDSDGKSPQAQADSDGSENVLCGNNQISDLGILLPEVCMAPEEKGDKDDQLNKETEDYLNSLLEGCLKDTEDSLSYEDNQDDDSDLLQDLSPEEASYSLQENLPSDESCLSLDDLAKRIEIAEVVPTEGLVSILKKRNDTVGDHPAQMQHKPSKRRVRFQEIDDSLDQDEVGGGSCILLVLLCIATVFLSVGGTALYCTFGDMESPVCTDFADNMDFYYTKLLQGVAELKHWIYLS
UniProt Q9Y6G5, whole entry, looked up: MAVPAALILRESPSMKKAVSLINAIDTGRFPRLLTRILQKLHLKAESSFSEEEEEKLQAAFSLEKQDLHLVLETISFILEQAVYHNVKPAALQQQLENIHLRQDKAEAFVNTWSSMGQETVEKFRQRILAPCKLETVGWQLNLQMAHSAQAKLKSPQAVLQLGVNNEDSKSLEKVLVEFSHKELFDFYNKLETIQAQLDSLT
UniProt O75976: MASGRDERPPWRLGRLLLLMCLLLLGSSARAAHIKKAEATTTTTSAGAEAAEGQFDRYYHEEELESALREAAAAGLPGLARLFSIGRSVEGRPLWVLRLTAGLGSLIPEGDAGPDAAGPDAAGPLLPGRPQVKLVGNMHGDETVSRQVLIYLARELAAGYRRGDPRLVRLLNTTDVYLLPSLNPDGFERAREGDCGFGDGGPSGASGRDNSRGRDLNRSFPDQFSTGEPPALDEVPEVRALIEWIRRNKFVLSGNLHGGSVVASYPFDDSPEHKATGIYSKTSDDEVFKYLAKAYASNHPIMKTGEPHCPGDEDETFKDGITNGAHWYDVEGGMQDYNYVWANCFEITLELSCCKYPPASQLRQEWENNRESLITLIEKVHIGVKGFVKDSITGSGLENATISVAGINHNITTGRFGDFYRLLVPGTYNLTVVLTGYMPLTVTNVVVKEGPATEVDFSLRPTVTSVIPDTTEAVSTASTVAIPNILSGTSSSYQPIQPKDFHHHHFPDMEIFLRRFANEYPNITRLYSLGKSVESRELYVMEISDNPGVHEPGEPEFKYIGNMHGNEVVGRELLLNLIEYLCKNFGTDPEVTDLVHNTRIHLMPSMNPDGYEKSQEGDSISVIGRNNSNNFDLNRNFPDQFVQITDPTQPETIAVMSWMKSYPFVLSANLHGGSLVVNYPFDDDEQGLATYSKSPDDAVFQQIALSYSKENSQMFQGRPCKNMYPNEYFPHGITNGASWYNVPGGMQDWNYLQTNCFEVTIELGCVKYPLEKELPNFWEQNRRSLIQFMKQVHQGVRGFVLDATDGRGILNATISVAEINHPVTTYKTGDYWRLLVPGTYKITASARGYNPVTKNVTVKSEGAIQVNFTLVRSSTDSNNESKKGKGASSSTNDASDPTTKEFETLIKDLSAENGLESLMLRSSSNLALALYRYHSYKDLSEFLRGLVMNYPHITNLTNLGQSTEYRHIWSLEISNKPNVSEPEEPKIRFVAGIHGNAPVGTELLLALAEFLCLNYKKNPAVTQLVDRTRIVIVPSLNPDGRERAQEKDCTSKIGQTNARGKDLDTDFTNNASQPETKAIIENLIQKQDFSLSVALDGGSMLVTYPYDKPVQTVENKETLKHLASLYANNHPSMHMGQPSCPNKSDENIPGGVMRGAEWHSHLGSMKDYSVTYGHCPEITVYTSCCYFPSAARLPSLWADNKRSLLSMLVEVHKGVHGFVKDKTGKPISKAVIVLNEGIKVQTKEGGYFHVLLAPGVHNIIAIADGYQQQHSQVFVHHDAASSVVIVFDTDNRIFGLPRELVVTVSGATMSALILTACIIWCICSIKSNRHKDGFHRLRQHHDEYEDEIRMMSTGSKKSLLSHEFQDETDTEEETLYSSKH
UniProt Q17RY0: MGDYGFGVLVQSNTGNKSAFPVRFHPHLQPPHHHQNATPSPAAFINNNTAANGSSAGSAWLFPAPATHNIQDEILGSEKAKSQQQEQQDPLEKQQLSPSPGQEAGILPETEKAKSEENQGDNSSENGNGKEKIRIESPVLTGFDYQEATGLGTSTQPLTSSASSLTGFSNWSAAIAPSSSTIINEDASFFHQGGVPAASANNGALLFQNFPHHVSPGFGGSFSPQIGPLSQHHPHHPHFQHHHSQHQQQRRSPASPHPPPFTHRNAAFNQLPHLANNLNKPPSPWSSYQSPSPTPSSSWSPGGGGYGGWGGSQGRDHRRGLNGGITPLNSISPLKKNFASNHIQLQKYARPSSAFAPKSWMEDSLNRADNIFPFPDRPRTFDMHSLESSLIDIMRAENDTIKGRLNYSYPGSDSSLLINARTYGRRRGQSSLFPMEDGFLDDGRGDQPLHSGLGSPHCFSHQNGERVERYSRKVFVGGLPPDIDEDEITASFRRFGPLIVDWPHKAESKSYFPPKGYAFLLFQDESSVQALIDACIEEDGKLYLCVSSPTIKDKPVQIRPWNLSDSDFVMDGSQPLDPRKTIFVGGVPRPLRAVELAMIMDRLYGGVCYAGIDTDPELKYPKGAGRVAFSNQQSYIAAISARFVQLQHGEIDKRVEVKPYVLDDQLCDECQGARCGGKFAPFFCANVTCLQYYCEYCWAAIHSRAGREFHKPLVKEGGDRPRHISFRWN

These targets were tested with CC1=C(C=C(C=C1)NC(=O)C2=CC(=CC=C2)N(C)C)NC(=O)C3=CC=C(C=C3)O (assay: log2 fold change, soluble protein after heating vs DMSO (PISA); higher = thermal stabilisation; K562 lysate, 10 uM; active = over 0.2 and 3.5 SD of the protein, either way, in both replicates (recomputed)).
Method in brief: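 K562 pellets were dounce-homogenised in PBS pH 7.4 containing 1 mM MgCl2, and the crude extract, at 1 mg/mL protein, was exposed to 10 μM compound for 30 min. Aliquots were heated for 3 min across 48°C-58°C, pooled, brought to 0.5% NP-40 at 4°C and spun at 21,000xg for 90 min, with the supernatant taken as soluble protein. TMTpro 16plex LC-MS/MS with equalised channel sums quantified that protein. Values are log-two fold changes in thermal stability relative to solvent controls, taken from duplicates.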

Q: How did the log2 fold change turn out when CNOT10 (UniProt Q9H9A5) was run?
A: inactive: 0.038

Q: COPA isoform 2 (UniProt P53621) was tested. Which log2 fold change did it give?
A: inactive: 0.002

Q: COPS3 (UniProt Q9UNS2) was tested. Which log2 fold change did it give?
A: inactive: -0.003

Q: For COX7A2 (UniProt P14406), which log2 fold change is on record?
A: inactive: 0.022

Q: CNOT6 (UniProt Q9ULM6) was tested. Which log2 fold change did it give?
A: inactive: 0.025

Q: CNOT7 (UniProt Q9UIV1) was tested. Which log2 fold change did it give?
A: inactive: 0.03

Q: For CNOT3 (UniProt O75175), which log2 fold change is on record?
A: inactive: 0.007

Q: How did the log2 fold change turn out when COX5A (UniProt P20674) was run?
A: inactive: -0.011

Q: How did the log2 fold change turn out when COPRS (UniProt Q9NQ92) was run?
A: inactive: -0.004

Q: Which log2 fold change does the source give for COQ7 (UniProt Q99807) here?
A: inactive: 0.057

Q: Which log2 fold change does the source give for COTL1 (UniProt Q14019) here?
A: inactive: -0.015

Q: Which log2 fold change does the source give for COX11 (UniProt Q9Y6N1) here?
A: inactive: 0.026

Q: How did the log2 fold change turn out when CRADD (UniProt P78560) was run?
A: inactive: 0.023

Q: For COMMD1 (UniProt Q8N668), which log2 fold change is on record?
A: inactive: -0.002

Q: For CNOT1 (UniProt A5YKK6), which log2 fold change is on record?
A: inactive: 0.018

Q: With CPSF7 isoform 3 (UniProt Q8N684) as the target, how does the log2 fold change read?
A: inactive: -0.006

Q: For COMTD1 (UniProt Q86VU5), which log2 fold change is on record?
A: inactive: 0.062

Q: COX18 (UniProt Q8N8Q8) was tested. Which log2 fold change did it give?
A: inactive: -0.022

Q: How did the log2 fold change turn out when COX19 (UniProt Q49B96) was run?
A: inactive: -0.017

Q: COPZ1 isoform 4 (UniProt P61923) was tested. Which log2 fold change did it give?
A: inactive: -0.012

Q: CPSF1 (UniProt Q10570) was tested. Which log2 fold change did it give?
A: inactive: 0.022

Q: CNPY2 (UniProt Q9Y2B0) was tested. Which log2 fold change did it give?
A: inactive: 0.004

Q: For CNST (UniProt Q6PJW8), which log2 fold change is on record?
A: inactive: 0.006

Q: How did the log2 fold change turn out when COA1 (UniProt Q9GZY4) was run?
A: inactive: 0.013

Q: For COPS7B (UniProt Q9H9Q2), which log2 fold change is on record?
A: inactive: 0.017

Q: How did the log2 fold change turn out when COQ3 (UniProt Q9NZJ6) was run?
A: inactive: 0.032

Q: With CNTN4 (UniProt Q8IWV2) as the target, how does the log2 fold change read?
A: inactive: -0.039

Q: Which log2 fold change does the source give for COX4I1 (UniProt P13073) here?
A: inactive: -0.008

Q: For CPPED1 (UniProt Q9BRF8), which log2 fold change is on record?
A: inactive: 0.022

Q: For COPS4 (UniProt Q9BT78), which log2 fold change is on record?
A: inactive: 0.001

Q: With CPSF4 (UniProt O95639) as the target, how does the log2 fold change read?
A: inactive: 0.047

Q: How did the log2 fold change turn out when COMMD10 (UniProt Q9Y6G5) was run?
A: inactive: -0.006

Q: CPD (UniProt O75976) was tested. Which log2 fold change did it give?
A: inactive: -0.013

Q: Which log2 fold change does the source give for CORO1C isoform 3 (UniProt Q9ULV4) here?
A: inactive: 0.016

Q: How did the log2 fold change turn out when CNOT4 isoform 6 (UniProt O95628) was run?
A: inactive: -0.026

Q: With COMMD9 (UniProt Q9P000) as the target, how does the log2 fold change read?
A: inactive: -0.014

Q: How did the log2 fold change turn out when COL18A1 (UniProt P39060) was run?
A: inactive: 0.027

Q: How did the log2 fold change turn out when CPEB4 (UniProt Q17RY0) was run?
A: inactive: -0.076

Q: For COX15 (UniProt Q7KZN9), which log2 fold change is on record?
A: inactive: -0.046

Q: How did the log2 fold change turn out when COX6A1 (UniProt P12074) was run?
A: inactive: 0.019
